This note sets out measurements from US10989719B2, “Methods for treating spinocerebellar ataxia type I using RPA1” (National University Corporation Tokyo Medical and Dental …, priority 2013, dated 2021).

Protein sequences, listed by entry. Tags and fused reporters are not part of them.
UniProt Q8VEE4: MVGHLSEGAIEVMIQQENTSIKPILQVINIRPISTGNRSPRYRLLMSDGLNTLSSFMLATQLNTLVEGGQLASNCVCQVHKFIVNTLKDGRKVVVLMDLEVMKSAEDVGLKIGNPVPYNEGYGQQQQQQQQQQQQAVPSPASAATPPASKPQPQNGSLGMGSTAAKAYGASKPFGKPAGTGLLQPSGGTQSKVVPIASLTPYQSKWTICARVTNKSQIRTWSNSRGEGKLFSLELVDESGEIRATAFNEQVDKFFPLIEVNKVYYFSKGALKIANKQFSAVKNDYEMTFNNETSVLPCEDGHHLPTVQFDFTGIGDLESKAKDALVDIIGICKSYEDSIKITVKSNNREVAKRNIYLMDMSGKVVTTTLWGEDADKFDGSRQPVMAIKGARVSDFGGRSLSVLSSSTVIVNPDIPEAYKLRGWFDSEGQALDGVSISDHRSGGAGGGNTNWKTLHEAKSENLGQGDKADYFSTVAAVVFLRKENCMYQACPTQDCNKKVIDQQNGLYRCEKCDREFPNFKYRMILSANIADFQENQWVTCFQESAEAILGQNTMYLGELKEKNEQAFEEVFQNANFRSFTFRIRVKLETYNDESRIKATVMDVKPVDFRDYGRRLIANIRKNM

These are yes or no findings as the source states them, for the method shown. In cells and extracts the contact can be indirect. Some results given as binding are weak or reduced against the parent protein; the word gives no strength.

The experiment concerns the target endogenous RPA1 (mouse brain) (mouse) (UniProt Q8VEE4). In words: co-immunoprecipitation from mouse brain homogenate (anti-RPA1 H-7 or anti-Atxn1 11NQ), Western blot.

B1: wild-type ATXN1 (mouse brain, non-transgenic littermate) (protein, UniProt P54254 1-791, looked up)
chain: MKSNQERSNECLPPKKREIPATSRPSEEKATALPSDNHCVEGVAWLPSTPGIRGHGGGRHGSAGTSGEHGLQGMGLHKALSAGLDYSPPSAPRSVPTANTLPTVYPPPQSGTPVSPVQYAHLSHTFQFIGSSQYSGPYAGFIPSQLISPSGNPVTSAVASAAGATTPSQRSQLEAYSTLLANMGSLSQAPGHKVEPPPQQHLSRAAGLVNPGSPPPPTQQNQYIHISSSPQSSGRATSPPPIPVHLHPHQTMIPHTLTLGPSSQVVVQYSDAGGHFVPRESTKKAESSRLQQAMQAKEVLNGEMEKSRRYGASSSVELSLGKASSKSVPHPYESRHVVVHPSPADYSSRDTSGVRGSVMVLPNSSTPSADLEAQQTTHREASPSTLNDKSGLHLGKPGHRSYALSPHTVIQTTHSASEPLPVGLPATAFYAGTQPPVIGYLSGQQQAITYAGGLPQHLVIPGNQPLLIPVGSPDMDTPGAASAIVTSSPQFAAVPHTFVTTALPKSENFNPEALVTQAAYPAMVQAQIHLPVVQSVASPTTASPTLPPYFMKGSIIQLANGELKKVEDLKTEDFIQSAEISNDLKIDSSTVERIEESHSPGVAVIQFAVGEHRAQVSVEVLVEYPFFVFGQGWSSCCPERTSQLFDLPCSKLSVGDVCISLTLKNLKNGSVKKGQPVDPASVLLKQAKTDSLAGSRHRYAEQENGINQGSAQVLSENGELKFPEKIGLPAAPFLSKIEPSKPTATRKRRWSAPETRKLEKSEDEPPLTLPKPSLIPQEVKICIEGRSNVGK
Turning to B1, the binding entry is reported as “binds”.
